Measured values from PMC3834315.
Protein sequences can lack the tags named with them.

Tests used:
[1] = target: T1, VapB10 (Synechocystis sp. PCC 6803) (UniProt P73044); assay: competition with a labelled probe; details: 1 uM unlabeled P competes with labeled P; 100 mM Tris-HCl pH 8.0, 100 mM NaCl, 1 mM DTT, 10% glycerol, 0.1 mg/ml sonicated salmon sperm DNA, about 10 nM labeled DNA, 30 min at room temperature; 5% native PAGE; recombinant protein; residues 1-74; label: 5'-32P; probe letters rebuilt from the primers and the genome
T1 sequence (looked up): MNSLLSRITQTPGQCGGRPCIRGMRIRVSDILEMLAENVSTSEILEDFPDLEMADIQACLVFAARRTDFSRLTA

[2] = target: T1, VapB10 (Synechocystis sp. PCC 6803); assay: EMSA; details: 100 mM Tris-HCl pH 8.0, 100 mM NaCl, 1 mM DTT, 10% glycerol, 0.1 mg/ml sonicated salmon sperm DNA, about 10 nM labeled DNA, 30 min at room temperature; 5% native PAGE; recombinant protein; residues 1-74; label: 5'-32P; probe letters rebuilt from the primers and the genome

CGCTTCACTGAGCTGGTTGAGGTCAATTTTTTTATGCACCATAATGATTATTACAATTTTGCCAATGGAGATTAACTTTCCCTTCAGGGTAACGGCTGACTGACTTTTGATACGGAAATTTTGTTAGGGAGGAGAAAATCAAAAAATGCGATGTAGTATAAAAAAATCTTACTCGTATGAAATGATCTTAGTACACTAAATGAATAGCTTACTGTCTCGCATTACCCAAACCCCCGGTCAGTGTGGTGGTCGTCCTTGTATTCGAGGGATGAGGATTCGAGTGAGCGACATCGGATCCTTCTC (double strand) [fragment P (PvapBC10, 296 bp)]
binding result [1]: binds
binding result [2]: binds
